From article PMC8165255

Sequences of proteins named here, by UniProt entry; tags and fusion partners are left off.
UniProt O14746: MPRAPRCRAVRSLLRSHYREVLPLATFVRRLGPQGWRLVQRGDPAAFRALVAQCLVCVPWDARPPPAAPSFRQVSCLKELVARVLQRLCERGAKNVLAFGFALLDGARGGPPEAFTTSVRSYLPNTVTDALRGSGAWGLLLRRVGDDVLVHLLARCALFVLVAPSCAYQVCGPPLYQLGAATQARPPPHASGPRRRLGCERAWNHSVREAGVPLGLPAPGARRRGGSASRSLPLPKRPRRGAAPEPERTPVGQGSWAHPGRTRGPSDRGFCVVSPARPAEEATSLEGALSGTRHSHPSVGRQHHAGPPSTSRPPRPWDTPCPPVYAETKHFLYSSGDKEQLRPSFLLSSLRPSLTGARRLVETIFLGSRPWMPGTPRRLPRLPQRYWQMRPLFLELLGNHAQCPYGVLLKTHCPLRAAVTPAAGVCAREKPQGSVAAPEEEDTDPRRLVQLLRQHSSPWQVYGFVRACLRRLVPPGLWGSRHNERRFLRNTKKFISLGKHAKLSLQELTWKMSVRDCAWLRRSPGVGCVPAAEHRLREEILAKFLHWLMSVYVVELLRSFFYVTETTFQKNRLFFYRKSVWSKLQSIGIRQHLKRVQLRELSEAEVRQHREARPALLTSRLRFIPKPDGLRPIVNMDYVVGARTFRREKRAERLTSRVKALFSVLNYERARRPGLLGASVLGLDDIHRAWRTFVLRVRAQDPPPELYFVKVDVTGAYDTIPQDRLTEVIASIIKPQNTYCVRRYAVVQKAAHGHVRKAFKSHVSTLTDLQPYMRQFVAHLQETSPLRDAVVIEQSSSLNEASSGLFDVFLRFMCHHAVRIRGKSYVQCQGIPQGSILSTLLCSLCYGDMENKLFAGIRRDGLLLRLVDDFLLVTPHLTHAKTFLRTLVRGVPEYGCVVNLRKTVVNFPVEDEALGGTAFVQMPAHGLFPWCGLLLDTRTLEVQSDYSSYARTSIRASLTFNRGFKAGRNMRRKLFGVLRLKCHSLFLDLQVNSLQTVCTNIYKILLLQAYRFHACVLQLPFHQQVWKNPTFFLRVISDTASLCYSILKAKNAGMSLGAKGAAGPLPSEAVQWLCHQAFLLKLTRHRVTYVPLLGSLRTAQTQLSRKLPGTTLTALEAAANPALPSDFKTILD
UniProt P67809: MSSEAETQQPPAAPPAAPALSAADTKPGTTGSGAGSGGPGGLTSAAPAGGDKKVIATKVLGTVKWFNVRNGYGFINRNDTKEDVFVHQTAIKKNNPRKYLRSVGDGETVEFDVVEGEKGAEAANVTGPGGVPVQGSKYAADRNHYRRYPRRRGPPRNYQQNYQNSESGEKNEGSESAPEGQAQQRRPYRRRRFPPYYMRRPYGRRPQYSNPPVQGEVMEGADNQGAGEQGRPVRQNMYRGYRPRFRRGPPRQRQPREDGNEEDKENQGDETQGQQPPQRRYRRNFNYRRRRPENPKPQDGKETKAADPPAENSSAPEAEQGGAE
UniProt P13010: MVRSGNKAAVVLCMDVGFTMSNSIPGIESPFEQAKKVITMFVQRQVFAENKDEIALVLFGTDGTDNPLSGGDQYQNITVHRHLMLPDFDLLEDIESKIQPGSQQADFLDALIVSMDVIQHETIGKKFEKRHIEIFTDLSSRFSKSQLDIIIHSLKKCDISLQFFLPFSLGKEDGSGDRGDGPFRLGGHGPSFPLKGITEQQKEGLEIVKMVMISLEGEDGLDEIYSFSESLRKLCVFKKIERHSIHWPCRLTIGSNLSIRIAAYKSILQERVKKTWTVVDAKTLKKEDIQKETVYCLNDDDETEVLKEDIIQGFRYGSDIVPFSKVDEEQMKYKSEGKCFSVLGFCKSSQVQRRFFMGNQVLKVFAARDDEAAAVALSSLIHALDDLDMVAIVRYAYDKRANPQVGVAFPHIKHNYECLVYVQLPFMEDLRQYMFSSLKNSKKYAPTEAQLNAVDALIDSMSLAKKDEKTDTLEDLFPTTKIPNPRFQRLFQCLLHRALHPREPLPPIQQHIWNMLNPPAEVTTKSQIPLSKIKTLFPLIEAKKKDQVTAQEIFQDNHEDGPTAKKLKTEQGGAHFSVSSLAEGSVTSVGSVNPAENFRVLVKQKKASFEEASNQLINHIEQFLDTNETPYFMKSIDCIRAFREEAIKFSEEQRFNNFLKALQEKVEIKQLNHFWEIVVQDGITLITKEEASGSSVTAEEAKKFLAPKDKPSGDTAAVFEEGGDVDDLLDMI

Target: Human telomerase reverse transcriptase (human (endogenous in HCT116)) (UniProt O14746)
Assay: affinity purification with mass spectrometry; hTERT immunoprecipitation (IP) followed by LC-MS, performed three times; cells not given

binding | Molecule
binds | YBX1 (from UniProt P67809 1-324)
binds | XRCC5 (from UniProt P13010 1-732)
binds | ILF3 (protein, UniProt Q12906 1-894) MRPMRIFVNDDRHVMAKHSSVYPTQEELEAVQNMVSHTERALKAVSDWIDEQEKGSSEQAESDNMDVPPEDDSKEGAGEQKTEHMTRTLRGVMRVGLVAKGLLLKGDLDLELVLLCKEKPTTALLDKVADNLAIQLAAVTEDKYEILQSVDDAAIVIKNTKEPPLSLTIHLTSPVVREEMEKVLAGETLSVNDPPDVLDRQKCLAALASLRHAKWFQARANGLKSCVIVIRVLRDLCTRVPTWGPLRGWPLELLCEKSIGTANRPMGAGEALRRVLECLASGIVMPDGSGIYDPCEKEATDAIGHLDRQQREDITQSAQHALRLAAFGQLHKVLGMDPLPSKMPKKPKNENPVDYTVQIPPSTTYAITPMKRPMEEDGEEKSPSKKKKKIQKKEEKAEPPQAMNALMRLNQLKPGLQYKLVSQTGPVHAPIFTMSVEVDGNSFEASGPSKKTAKLHVAVKVLQDMGLPTGAEGRDSSKGEDSAEETEAKPAVVAPAPVVEAVSTPSAAFPSDATAEQGPILTKHGKNPVMELNEKRRGLKYELISETGGSHDKRFVMEVEVDGQKFQGAGSNKKVAKAYAALAALEKLFPDTPLALDANKKKRAPVPVRGGPKFAAKPHNPGFGMGGPMHNEVPPPPNLRGRGRGGSIRGRGRGRGFGGANHGGYMNAGAGYGSYGYGGNSATAGYSQFYSNGGHSGNASGGGGGGGGGSSGYGSYYQGDNYNSPVPPKHAGKKQPHGGQQKPSYGSGYQSHQGQQQSYNQSPYSNYGPPQGKQKGYNHGQGSYSYSNSYNSPGGGGGSDYNYESKFNYSGSGGRSGGNSYGSGGASYNPGSHGGYGGGSGGGSSYQGKQGGYSQSNYNSPGSGQNYSGPPSSYQSSQGGYGRNADHSMNYQYR

Results are given in words; binding and its absence hold for the method and conditions named. In cells and extracts the contact can be indirect. Here binding means that the protein was enriched with, or labelled near, the bait; the list need not be complete.
